Patent publication US20200254110A1 (priority 2017, published 2020)

Experiment: general procedure: peptide synthesis; pentafluorophenol ester
Conditions: conjugation step

DEG-SLIGRL
conjugation yield: 39%

Fam5/6-Lysine-DEG-SLIGRL
conjugation yield: 26.2%
